Measurements reported in PubChem BioAssay AID1224830 (NIAID, 2016)
The whole screen tested about 18,000 reagents; shown is a random part of them. Of all reagents, about 2,900 (16%) are marked active. 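Calls are made per well; low scores hint the gene aids the LPS response, high scores that it dampens it.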 Repeated entries: four replicate wells of each siRNA pool.

Purpose: 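Host factors that control LPS-induced TNF expression in human macrophages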 (primary screen)
System: human THP-1 monocytic leukaemia cells, TNF dual-luciferase reporter clone, PMA-differentiated to macrophage-like cells
Knock-down reagent: siRNA pool against human genes, 50 nM
Time to read-out: LPS for 4 h, given about 3 days after siRNA transfection
Treatment: bacterial LPS (TLR4 ligand), 10 ng/ml
Measurement: 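TNF firefly reporter luminescence divided by renilla, normalised to the plate median, then turned into a robust z-score for each replicate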
Scale: TNF reporter robust z-score: higher = stronger TNF reporter response to LPS
Hit rule: 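a well is active when its z-score exceeds 2.8 or falls below -1.5; control wells carry no call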

What did the screen give for DEFB136 (defensin beta 136) [SID315465053]?
TNF reporter robust z-score: -1.13; Outcome: inactive

With DEFB136 (defensin beta 136) [SID315465053], what was measured?
TNF reporter robust z-score: 0.75; Outcome: inactive

What did the screen give for DEFB136 (defensin beta 136) [SID315465053]?
TNF reporter robust z-score: -0.82; Outcome: inactive

With DEFB136 (defensin beta 136) [SID315465053], what does the deposit list?
TNF reporter robust z-score: -0.72; Outcome: inactive

With FGGY (FGGY carbohydrate kinase domain containing) [SID315457556], what was measured?
TNF reporter robust z-score: 0; Outcome: inactive

What is on record for FGGY (FGGY carbohydrate kinase domain containing) [SID315457556]?
TNF reporter robust z-score: -0.03; Outcome: inactive

How did the screen score FGGY (FGGY carbohydrate kinase domain containing) [SID315457556]?
TNF reporter robust z-score: 0.9; Outcome: inactive

What is on record for FGGY (FGGY carbohydrate kinase domain containing) [SID315457556]?
TNF reporter robust z-score: 0.64; Outcome: inactive

For NPTX1 (neuronal pentraxin 1) [SID315450300], how do the results read?
TNF reporter robust z-score: -0.51; Outcome: inactive

What did the screen give for NPTX1 (neuronal pentraxin 1) [SID315450300]?
TNF reporter robust z-score: 0.82; Outcome: inactive

With NPTX1 (neuronal pentraxin 1) [SID315450300], how do the results read?
TNF reporter robust z-score: 0.12; Outcome: inactive

With NPTX1 (neuronal pentraxin 1) [SID315450300], how do the results read?
TNF reporter robust z-score: 0.43; Outcome: inactive

Which result is listed for DDX47 (DEAD-box helicase 47) [SID315456551]?
TNF reporter robust z-score: 1.13; Outcome: inactive

How did the screen score DDX47 (DEAD-box helicase 47) [SID315456551]?
TNF reporter robust z-score: 2.45; Outcome: inactive

For DDX47 (DEAD-box helicase 47) [SID315456551], what was measured?
TNF reporter robust z-score: 2.09; Outcome: inactive

How did the screen score DDX47 (DEAD-box helicase 47) [SID315456551]?
TNF reporter robust z-score: 1.93; Outcome: inactive

How did the screen score YEATS4 (YEATS domain containing 4) [SID315452397]?
TNF reporter robust z-score: -0.66; Outcome: inactive

What is on record for YEATS4 (YEATS domain containing 4) [SID315452397]?
TNF reporter robust z-score: -0.04; Outcome: inactive

What is on record for YEATS4 (YEATS domain containing 4) [SID315452397]?
TNF reporter robust z-score: -0.64; Outcome: inactive

What did the screen give for YEATS4 (YEATS domain containing 4) [SID315452397]?
TNF reporter robust z-score: -1.11; Outcome: inactive

Part of the list above in another layout:
FGGY (FGGY carbohydrate kinase domain containing) [SID315457556]
- TNF reporter robust z-score: 0.64
- Outcome: inactive

NPTX1 (neuronal pentraxin 1) [SID315450300]
- TNF reporter robust z-score: -0.51
- Outcome: inactive

NPTX1 (neuronal pentraxin 1) [SID315450300]
- TNF reporter robust z-score: 0.82
- Outcome: inactive

NPTX1 (neuronal pentraxin 1) [SID315450300]
- TNF reporter robust z-score: 0.12
- Outcome: inactive

Next records follow.
With TUSC1 (tumor suppressor candidate 1) [SID315463911], how do the results read?
TNF reporter robust z-score: -0.26; Outcome: inactive

How did the screen score TUSC1 (tumor suppressor candidate 1) [SID315463911]?
TNF reporter robust z-score: 0.49; Outcome: inactive

How did the screen score TUSC1 (tumor suppressor candidate 1) [SID315463911]?
TNF reporter robust z-score: 0.14; Outcome: inactive

For TUSC1 (tumor suppressor candidate 1) [SID315463911], how do the results read?
TNF reporter robust z-score: -0.11; Outcome: inactive

For PLPP1 (phospholipid phosphatase 1) [SID315452685], what was measured?
TNF reporter robust z-score: -1.42; Outcome: inactive

Which result is listed for PLPP1 (phospholipid phosphatase 1) [SID315452685]?
TNF reporter robust z-score: -1.79; Outcome: active

With PLPP1 (phospholipid phosphatase 1) [SID315452685], what was measured?
TNF reporter robust z-score: -1.92; Outcome: active

What is on record for PLPP1 (phospholipid phosphatase 1) [SID315452685]?
TNF reporter robust z-score: -1.6; Outcome: active

Which result is listed for LLPH (LLP homolog, long-term synaptic facilitation factor) [SID315460308]?
TNF reporter robust z-score: 2.87; Outcome: active

With LLPH (LLP homolog, long-term synaptic facilitation factor) [SID315460308], how do the results read?
TNF reporter robust z-score: 1.9; Outcome: inactive

For LLPH (LLP homolog, long-term synaptic facilitation factor) [SID315460308], what does the deposit list?
TNF reporter robust z-score: 3.16; Outcome: active

Which result is listed for LLPH (LLP homolog, long-term synaptic facilitation factor) [SID315460308]?
TNF reporter robust z-score: 1.16; Outcome: inactive

With FGFBP3 (fibroblast growth factor binding protein 3) [SID315462180], what does the deposit list?
TNF reporter robust z-score: -1.36; Outcome: inactive

Which result is listed for FGFBP3 (fibroblast growth factor binding protein 3) [SID315462180]?
TNF reporter robust z-score: -0.93; Outcome: inactive

For FGFBP3 (fibroblast growth factor binding protein 3) [SID315462180], what was measured?
TNF reporter robust z-score: -1.59; Outcome: active

How did the screen score FGFBP3 (fibroblast growth factor binding protein 3) [SID315462180]?
TNF reporter robust z-score: -1.07; Outcome: inactive

What is on record for ACSM4 (acyl-CoA synthetase medium chain family member 4) [SID315464116]?
TNF reporter robust z-score: -0.79; Outcome: inactive

How did the screen score ACSM4 (acyl-CoA synthetase medium chain family member 4) [SID315464116]?
TNF reporter robust z-score: -0.67; Outcome: inactive

What is on record for ACSM4 (acyl-CoA synthetase medium chain family member 4) [SID315464116]?
TNF reporter robust z-score: -0.41; Outcome: inactive

With ACSM4 (acyl-CoA synthetase medium chain family member 4) [SID315464116], what was measured?
TNF reporter robust z-score: -0.27; Outcome: inactive

For FAM234B (family with sequence similarity 234 member B) [SID315458503], what was measured?
TNF reporter robust z-score: 1.71; Outcome: inactive

For FAM234B (family with sequence similarity 234 member B) [SID315458503], what does the deposit list?
TNF reporter robust z-score: 2.42; Outcome: inactive

How did the screen score FAM234B (family with sequence similarity 234 member B) [SID315458503]?
TNF reporter robust z-score: 2.4; Outcome: inactive

What did the screen give for FAM234B (family with sequence similarity 234 member B) [SID315458503]?
TNF reporter robust z-score: 2.3; Outcome: inactive

For PRSS58 (serine protease 58) [SID315462013], what does the deposit list?
TNF reporter robust z-score: -1.22; Outcome: inactive

How did the screen score PRSS58 (serine protease 58) [SID315462013]?
TNF reporter robust z-score: -1.31; Outcome: inactive

What is on record for PRSS58 (serine protease 58) [SID315462013]?
TNF reporter robust z-score: 0.17; Outcome: inactive

Which result is listed for PRSS58 (serine protease 58) [SID315462013]?
TNF reporter robust z-score: 0.58; Outcome: inactive

What is on record for MITD1 (microtubule interacting and trafficking domain containing 1) [SID315461835]?
TNF reporter robust z-score: -0.18; Outcome: inactive

What did the screen give for MITD1 (microtubule interacting and trafficking domain containing 1) [SID315461835]?
TNF reporter robust z-score: 3.45; Outcome: active

For MITD1 (microtubule interacting and trafficking domain containing 1) [SID315461835], what was measured?
TNF reporter robust z-score: 3.77; Outcome: active

Which result is listed for MITD1 (microtubule interacting and trafficking domain containing 1) [SID315461835]?
TNF reporter robust z-score: 1.41; Outcome: inactive

With HEPH (hephaestin) [SID315453611], what does the deposit list?
TNF reporter robust z-score: -0.54; Outcome: inactive

What is on record for HEPH (hephaestin) [SID315453611]?
TNF reporter robust z-score: -0.52; Outcome: inactive

How did the screen score HEPH (hephaestin) [SID315453611]?
TNF reporter robust z-score: 0.35; Outcome: inactive

Which result is listed for HEPH (hephaestin) [SID315453611]?
TNF reporter robust z-score: -0.22; Outcome: inactive

With PRSS45P (serine protease 45, pseudogene) [SID315464391], what does the deposit list?
TNF reporter robust z-score: 1.82; Outcome: inactive

What is on record for PRSS45P (serine protease 45, pseudogene) [SID315464391]?
TNF reporter robust z-score: 2.03; Outcome: inactive

What is on record for PRSS45P (serine protease 45, pseudogene) [SID315464391]?
TNF reporter robust z-score: 0.14; Outcome: inactive

With PRSS45P (serine protease 45, pseudogene) [SID315464391], how do the results read?
TNF reporter robust z-score: 1.28; Outcome: inactive
